# Laboratory results taken from paper PMC13132546.
# Chains of the proteins cited; added tags and fusions are not shown.
# UniProt Q9NYF3: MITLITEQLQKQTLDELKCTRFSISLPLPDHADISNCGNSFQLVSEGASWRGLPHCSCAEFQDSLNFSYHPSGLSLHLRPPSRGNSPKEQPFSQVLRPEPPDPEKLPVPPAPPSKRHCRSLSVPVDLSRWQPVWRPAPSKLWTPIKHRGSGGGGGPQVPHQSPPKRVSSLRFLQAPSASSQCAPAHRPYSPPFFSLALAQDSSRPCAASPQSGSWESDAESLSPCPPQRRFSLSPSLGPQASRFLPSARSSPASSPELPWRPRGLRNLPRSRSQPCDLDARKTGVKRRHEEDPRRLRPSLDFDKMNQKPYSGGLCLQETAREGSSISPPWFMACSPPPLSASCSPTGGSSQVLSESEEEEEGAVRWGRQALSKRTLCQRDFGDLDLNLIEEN
# Target: LAP-tagged FAM53C (GFP- and S-tagged) (UniProt Q9NYF3)
# Experiment: affinity purification with mass spectrometry; tandem affinity purification of LAP-tagged FAM53C from HEK-293T lysate (GFP-coupled beads, PreScission cleavage, S-protein agarose; washes with 200 mM KCl, 0.05% NP40), in-gel digestion, LC-MS/MS
binder,measurement,value
"DCAF7 (protein, UniProt P61962 1-342) MSLHGKRKEIYKYEAPWTVYAMNWSVRPDKRFRLALGSFVEEYNNKVQLVGLDEESSEFICRNTFDHPYPTTKLMWIPDTKGVYPDLLATSGDYLRVWRVGETETRLECLLNNNKNSDFCAPLTSFDWNEVDPYLLGTSSIDTTCTIWGLETGQVLGRVNLVSGHVKTQLIAHDKEVYDIAFSRAGGGRDMFASVGADGSVRMFDLRHLEHSTIIYEDPQHHPLLRLCWNKQDPNYLATMAMDGMEVVILDVRVPCTPVARLNNHRACVNGIAWAPHSSCHICTAADDHQALIWDIQQMPRAIEDPILAYTAEGEINNVQWASTQPDWIAICYNNCLEILRV",binding,binds

# These are yes or no findings as the source states them, for the method shown. Binding seen in cells or lysates may run through a third protein. Here binding means that the protein was enriched with, or labelled near, the bait; the list need not be complete.
